Test results: PMC11890758
No constants are given. Whether binding was seen depends on the method and setting. Binding seen in cells or lysates may run through a third protein. Some entries that bind do so weakly or less than the wild type. Sequences can lack the tags named with a protein.

The chains behind the UniProt entries cited, without tags or fusion partners.
UniProt Q13490: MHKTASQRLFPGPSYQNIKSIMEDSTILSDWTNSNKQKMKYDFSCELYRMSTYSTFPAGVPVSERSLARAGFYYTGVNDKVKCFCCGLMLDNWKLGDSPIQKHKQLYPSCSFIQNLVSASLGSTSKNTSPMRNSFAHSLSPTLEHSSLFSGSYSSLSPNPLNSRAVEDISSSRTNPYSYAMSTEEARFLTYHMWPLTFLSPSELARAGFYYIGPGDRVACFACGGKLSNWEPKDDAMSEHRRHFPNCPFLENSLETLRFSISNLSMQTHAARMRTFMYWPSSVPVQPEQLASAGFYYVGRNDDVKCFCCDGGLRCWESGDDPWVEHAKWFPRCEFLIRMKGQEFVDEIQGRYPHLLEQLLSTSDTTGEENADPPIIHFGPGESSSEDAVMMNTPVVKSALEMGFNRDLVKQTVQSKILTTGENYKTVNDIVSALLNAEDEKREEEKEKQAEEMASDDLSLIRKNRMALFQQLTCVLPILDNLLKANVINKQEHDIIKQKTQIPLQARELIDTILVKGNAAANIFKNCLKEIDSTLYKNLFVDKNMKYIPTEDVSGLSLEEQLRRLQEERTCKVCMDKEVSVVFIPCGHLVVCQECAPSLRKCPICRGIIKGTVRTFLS

Target: GST-cIAP1 (human) (UniProt Q13490)
Test: pull-down; GST pull-down from lysate of HEK293T cells co-expressing a GST-tagged and a Venus-Flag-tagged protein; 1% NP-40 lysis buffer (20 mM Tris-HCl, 150 mM NaCl, 5% glycerol, 2 mM EDTA), glutathione sepharose beads, 4 C for 2 h, immunoblot; cells serum-starved overnight for Fig. 1H

binding: binds
B1: Venus-Flag-tagged LKB1 kinase domain C-lobe truncation (CL) (domain or fragment, UniProt Q15831 132-347)
chain: CVCGMQEMLDSVPEKRFPVCQAHGYFCQLIDGLEYLHSQGIVHKDIKPGNLLLTTGGTLKISDLGVAEALHPFAADDTCRTSQGSPAFQPPEIANGLDTFSGFKVDIWSAGVTLYNITTGLYPFEGDNIYKLFENIGKGSYAIPGDCGPPLSDLLKGMLEYEPAKRFSIRQIRQHSWFRKKHPPAEAPVPIPPSPDTKDRWRSMTVVPYLEDLHGA
